Binding data for three molecules are collected here from PMC12136849.

The chains behind the UniProt entries cited, without tags or fusion partners.
UniProt Q8R4B8: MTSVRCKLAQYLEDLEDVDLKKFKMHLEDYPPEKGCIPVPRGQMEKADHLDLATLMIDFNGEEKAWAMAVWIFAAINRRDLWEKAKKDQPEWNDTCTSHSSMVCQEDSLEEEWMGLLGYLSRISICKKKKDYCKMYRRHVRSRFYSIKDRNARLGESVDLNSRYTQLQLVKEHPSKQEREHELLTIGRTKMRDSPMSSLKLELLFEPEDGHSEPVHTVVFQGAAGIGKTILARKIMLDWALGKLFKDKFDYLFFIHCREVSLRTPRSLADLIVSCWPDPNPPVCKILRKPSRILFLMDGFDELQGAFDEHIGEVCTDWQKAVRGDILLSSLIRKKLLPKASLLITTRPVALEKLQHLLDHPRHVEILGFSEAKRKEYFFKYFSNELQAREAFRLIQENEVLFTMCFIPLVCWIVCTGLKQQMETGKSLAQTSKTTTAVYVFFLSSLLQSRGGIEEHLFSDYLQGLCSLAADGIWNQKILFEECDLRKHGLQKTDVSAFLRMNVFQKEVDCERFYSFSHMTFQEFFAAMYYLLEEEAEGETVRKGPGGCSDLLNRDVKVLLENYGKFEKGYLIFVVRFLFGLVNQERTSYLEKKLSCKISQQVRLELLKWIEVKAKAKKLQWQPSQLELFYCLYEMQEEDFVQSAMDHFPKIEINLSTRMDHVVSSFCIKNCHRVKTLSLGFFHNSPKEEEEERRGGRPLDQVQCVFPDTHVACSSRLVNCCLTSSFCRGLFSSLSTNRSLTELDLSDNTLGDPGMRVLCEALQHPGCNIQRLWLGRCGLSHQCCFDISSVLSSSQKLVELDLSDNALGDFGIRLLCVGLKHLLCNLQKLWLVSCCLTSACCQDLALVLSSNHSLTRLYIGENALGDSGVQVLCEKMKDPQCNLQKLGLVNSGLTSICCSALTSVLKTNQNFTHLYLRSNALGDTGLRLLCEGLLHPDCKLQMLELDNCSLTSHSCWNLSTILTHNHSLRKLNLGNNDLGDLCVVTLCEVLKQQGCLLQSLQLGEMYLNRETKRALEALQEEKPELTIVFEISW

Sequences and labels used below:
B1: Caspase-1 (enzyme, UniProt P29452 1-402)
chain: MADKILRAKRKQFINSVSIGTINGLLDELLEKRVLNQEEMDKIKLANITAMDKARDLCDHVSKKGPQASQIFITYICNEDCYLAGILELQSAPSAETFVATEDSKGGHPSSSETKEEQNKEDGTFPGLTGTLKFCPLEKAQKLWKENPSEIYPIMNTTTRTRLALIICNTEFQHLSPRVGAQVDLREMKLLLEDLGYTVKVKENLTALEMVKEVKEFAACPEHKTSDSTFLVFMSHGIQEGICGTTYSNEVSDILKVDTIFQMMNTLKCPSLKDKPKVIIIQACRGEKQGVVLLKDSVRDSEEDFLTDAIFEDDGIKKAHIEKDFIAFCSSTPDNVSWRHPVRGSLFIESLIKHMKEYAWSCDLEDIFRKVRFSFEQPEFRLQMPTADRVTLTKRFYLFPGH
B2: gasdermin D (Gsdmd) (protein, UniProt Q9D8T2 1-487)
chain: MPSAFEKVVKNVIKEVSGSRGDLIPVDSLRNSTSFRPYCLLNRKFSSSRFWKPRYSCVNLSIKDILEPSAPEPEPECFGSFKVSDVVDGNIQGRVMLSGMGEGKISGGAAVSDSSSASMNVCILRVTQKTWETMQHERHLQQPENKILQQLRSRGDDLFVVTEVLQTKEEVQITEVHSQEGSGQFTLPGALCLKGEGKGHQSRKKMVTIPAGSILAFRVAQLLIGSKWDILLVSDEKQRTFEPSSGDRKAVGQRHHGLNVLAALCSIGKQLSLLSDGIDEEELIEAADFQGLYAEVKACSSELESLEMELRQQILVNIGKILQDQPSMEALEASLGQGLCSGGQVEPLDGPAGCILECLVLDSGELVPELAAPIFYLLGALAVLSETQQQLLAKALETTVLSKQLELVKHVLEQSTPWQEQSSVSLPTVLLGDCWDEKNPTWVLLEECGLRLQVESPQVHWEPTSLIPTSALYASLFLLSSLGQKPC

These are yes or no findings as the source states them, for the method shown. Binding seen in cells or lysates may run through a third protein. Some entries that bind do so weakly or less than the wild type.

The assay has as its target T1, tripartite motif-containing protein 21 (Trim21) (mouse (endogenous in mTECs)) (UniProt Q62191).
T1 sequence: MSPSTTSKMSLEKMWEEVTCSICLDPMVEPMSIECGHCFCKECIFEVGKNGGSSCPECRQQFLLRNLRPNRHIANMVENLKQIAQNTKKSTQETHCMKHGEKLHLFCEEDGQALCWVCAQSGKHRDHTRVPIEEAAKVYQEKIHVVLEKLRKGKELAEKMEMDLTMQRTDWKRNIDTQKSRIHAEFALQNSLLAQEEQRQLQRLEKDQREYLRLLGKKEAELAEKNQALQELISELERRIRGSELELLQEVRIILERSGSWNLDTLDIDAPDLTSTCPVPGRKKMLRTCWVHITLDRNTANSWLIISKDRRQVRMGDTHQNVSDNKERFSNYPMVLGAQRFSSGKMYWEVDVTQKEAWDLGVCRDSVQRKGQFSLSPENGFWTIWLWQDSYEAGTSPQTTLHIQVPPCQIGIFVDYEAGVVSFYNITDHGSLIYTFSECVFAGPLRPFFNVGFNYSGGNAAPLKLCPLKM
In words: co-IP; NP40 lysates of LPS-induced mTECs, with or without overexpression of Trim21 (or ΔPRY/SPRY); rabbit anti-Trim21 antibody, rotation at 4 °C for 16 h; protein A/G magnetic beads; western blot. (In western blotting, separated proteins are transferred to a membrane and probed.)
For “Nlrp3 (from UniProt Q8R4B8 1-1033) (other; other documents disagree on this pair)”, the binding entry is “no binding”. The same measure for B1: “no binding”; for B2: “binds”.
